Data reported in US20140199692.
Construct, isoform or probe ends are uncertain for at least one entry. For some assays here: Where cells or extracts were used, other partners may take part.

Protein sequences, listed by entry. Tags and fused reporters are not part of them. Residues count along the entry.
UniProt P63073, 2-217: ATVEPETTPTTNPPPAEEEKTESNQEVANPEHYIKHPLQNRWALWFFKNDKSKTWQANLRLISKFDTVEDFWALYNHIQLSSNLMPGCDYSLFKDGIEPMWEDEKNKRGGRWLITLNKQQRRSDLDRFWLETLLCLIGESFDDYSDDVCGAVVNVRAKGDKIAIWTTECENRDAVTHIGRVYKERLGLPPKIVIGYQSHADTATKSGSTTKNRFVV
UniProt P06730, 2-217: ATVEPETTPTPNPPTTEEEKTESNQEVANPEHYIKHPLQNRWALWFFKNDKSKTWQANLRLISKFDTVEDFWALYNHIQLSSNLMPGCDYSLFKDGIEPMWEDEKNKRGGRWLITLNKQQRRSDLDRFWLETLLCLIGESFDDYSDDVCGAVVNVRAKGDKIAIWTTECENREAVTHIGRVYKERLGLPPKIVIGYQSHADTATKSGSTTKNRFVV

Tests used:
[1] = molecular target: eIF4E (endogenous, mouse nuclear extract) (Mus musculus) (UniProt P63073); experiment: pull-down; details: nuclear IP from transfected NIH3T3; protein in an extract
eIF4E (Homo sapiens) = eIF4E (Homo sapiens) (UniProt P06730); experiment: EMSA; details: 5' m7G cap; partial shift; NET-2 buffer, 3 mM MgCl2, RT; purified recombinant protein; protein details: untagged (h4E); label: 3' 32P-pCp
eIF4E (Mus musculus) = eIF4E (Mus musculus) (UniProt P63073); experiment: EMSA; details: 5' m7G cap; partial shift; NET-2 buffer, 3 mM MgCl2, tRNA, heparin, RT; purified recombinant protein; protein details: 6 kD solubility tag (m4E); label: 3' 32P-pCp
[2] = molecular target: eIF4E (endogenous, in nuclear lysate) (UniProt P06730); experiment: EMSA; details: 5' m7G cap; high MW complex; lost on eIF4E depletion, supershifted by anti-eIF4E; protein in an extract; label: 3' 32P-pCp
[3] = molecular target: eIF4E (endogenous, in nuclear lysate) (UniProt P06730); experiment: competition with a labelled probe; details: cold oligo competes for complex in nuclear lysate; eIF4E-dependent complex, possibly indirect; protein in an extract; variant of LacZ-p4E-SE transcript (Pim-1 4E-SE)

## UUUUUAAACACUAAAAUAUAUAAUUUAUAGUUAAGGCUAAAAAGUAUAUUUAUUGCAGAGGAUGUUCAUAAGGCCAGUAUGAUUUAUAAAUG [LacZ-3'UTR4 chimeric mRNA (cyclin D1 4E-SE)]
[1]
  binding result: binds

## GGGACUCAGGCGGGACAGUGCUGCAGCUCCCUGGCUUCUGUGGGCCCC [LacZ-p4E-SE transcript (Pim-1 4E-SE)]
eIF4E (Homo sapiens)
  binding result: binds
eIF4E (Mus musculus)
  binding result: binds
[2]
  binding result: binds

## GGGACUCAGGCGGGACAGUGCUGCAGCUCCCUGGCUUCUGUGGGCCCC [p4E-SE ribo-oligonucleotide competitor]
[3]
  binding result: binds
